Data reported in paper PMC10897394.
Changes are numbered by the printed parent chain. Numbers in names are those of the source. Results are given in words; binding and its absence hold for the method and conditions named. Binding seen in cells or lysates may run through a third protein. Some results given as binding are weak or reduced against the parent protein; the word gives no strength. Where a sequence is shown, tags or fusion partners need not be part of it. Values belong to the binder of their own block, whether it stands above or below them.

Experiments:
Experiment in all cases: co-IP; plasmid pairs co-expressed in Arabidopsis protoplasts for 24 h; lysate on Anti-GFP Nanobody Agarose Beads, 4 °C 2 h; 50 mM Tris-HCl pH 7.4, 150 mM NaCl, 1 mM MgCl2, 10% glycerol, 0.5% Nonidet P-40; blots with anti-Myc and anti-GFP; some samples with 1 μM Pep1 for 20 min or in protoplasts from ROT4-overexpressing plants
[1] = molecular target: T1, PEPR1-GFP (Arabidopsis thaliana) (UniProt Q9SSL9)
T1 sequence: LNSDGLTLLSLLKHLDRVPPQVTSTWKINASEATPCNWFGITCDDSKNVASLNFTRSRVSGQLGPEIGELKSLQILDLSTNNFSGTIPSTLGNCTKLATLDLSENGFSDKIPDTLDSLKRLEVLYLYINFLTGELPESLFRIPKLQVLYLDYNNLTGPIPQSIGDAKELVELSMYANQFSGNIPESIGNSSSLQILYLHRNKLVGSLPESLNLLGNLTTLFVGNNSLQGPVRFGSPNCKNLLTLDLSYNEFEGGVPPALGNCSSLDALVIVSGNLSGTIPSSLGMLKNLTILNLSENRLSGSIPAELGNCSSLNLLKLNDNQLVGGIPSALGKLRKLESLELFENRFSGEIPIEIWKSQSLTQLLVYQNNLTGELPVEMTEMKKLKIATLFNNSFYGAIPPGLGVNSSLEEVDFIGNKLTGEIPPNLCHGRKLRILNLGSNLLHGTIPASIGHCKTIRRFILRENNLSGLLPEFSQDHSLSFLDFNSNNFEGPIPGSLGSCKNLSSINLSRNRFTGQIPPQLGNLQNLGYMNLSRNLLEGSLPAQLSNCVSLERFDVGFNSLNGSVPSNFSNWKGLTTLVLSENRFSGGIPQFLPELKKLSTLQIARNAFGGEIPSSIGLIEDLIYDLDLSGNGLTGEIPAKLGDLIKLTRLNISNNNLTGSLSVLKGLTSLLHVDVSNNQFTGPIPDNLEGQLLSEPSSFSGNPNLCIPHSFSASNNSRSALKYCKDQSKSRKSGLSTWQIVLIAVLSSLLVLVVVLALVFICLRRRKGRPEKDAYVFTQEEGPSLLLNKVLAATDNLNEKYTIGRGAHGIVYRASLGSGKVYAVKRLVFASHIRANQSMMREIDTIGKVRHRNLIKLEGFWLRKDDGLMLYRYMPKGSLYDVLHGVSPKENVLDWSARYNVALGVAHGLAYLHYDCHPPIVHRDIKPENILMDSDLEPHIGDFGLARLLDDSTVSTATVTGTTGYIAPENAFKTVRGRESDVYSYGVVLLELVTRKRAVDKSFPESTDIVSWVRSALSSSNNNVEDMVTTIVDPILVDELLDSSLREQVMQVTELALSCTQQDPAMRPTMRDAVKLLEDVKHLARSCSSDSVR

[2] = molecular target: T2, GFP-ROT4(C42S) (Arabidopsis thaliana) (UniProt Q7XXN8)
T2 sequence: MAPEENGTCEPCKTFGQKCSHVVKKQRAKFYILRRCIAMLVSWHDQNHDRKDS

[3] = molecular target: T3, GFP-ROT4(WT) (Arabidopsis thaliana) (UniProt Q7XXN8)
T3 sequence (chain, S-acylated in plant cells, C42 the predominant S-acylation site): T2 sequence with S42C

binding [1]: binds
binding [2]: binds
binding [3]: binds
B1: BSK5-Myc (enzyme, UniProt Q9FIL1 1-489)
chain: MGPRCSKLSLCWWPTHLKSTHNEASDLDNGTDDLPSFTEFSFDQLRAATCGFSTDSIVSEHGVKAPNVVYKGRLEDDRWIAVKRFNRSAWPDTRQFLEEAKAVGQLRNERLANLIGFCCEGDERLLVAEFMPFETLSKHLFHWDSQPMKWSMRLRVALYLAQALEYCSSKGRALYHDLNAYRILFDQDGNPRLSCFGLMKNSRDGKSYSTNLAFTPPEYLRTGRVIPESVVYSFGTLLLDLLSGKHIPPSHALDLIRGKNFLMLMDSCLDGHFSNDDGTDLVRLASRCLQYEARERPNVKSLVSSLAPLQKETDIPSHVLMGIPHGAASPKETTSLTPLGDACSRHDLTAIHEILEKVGYKDDEGVANELSFQVWTDQIQETLNSKKQGDAAFKGKDFVTAVECYTQFIEDGTMVSPTVFARRCLCYLMSNMPQEALGDAMQAQVVSPEWPTAFYLQAAALFSLGMDKDACETLKDGTSLEAKKHNNRN

binding [1]: binds
B2: BSK5(S209A/T210A)-Myc (enzyme, UniProt Q9FIL1 1-489)
chain: B1 chain with S209A, T210A
